Results published in article PMC8102640.
No constants are given. Whether binding was seen depends on the method and setting. Binding seen in cells or lysates may run through a third protein. Some results given as binding are weak or reduced against the parent protein; the word gives no strength. Tags and fused reporters may be left off the sequences shown.

Chains of the proteins cited; added tags and fusions are not shown.
UniProt Q96CV9: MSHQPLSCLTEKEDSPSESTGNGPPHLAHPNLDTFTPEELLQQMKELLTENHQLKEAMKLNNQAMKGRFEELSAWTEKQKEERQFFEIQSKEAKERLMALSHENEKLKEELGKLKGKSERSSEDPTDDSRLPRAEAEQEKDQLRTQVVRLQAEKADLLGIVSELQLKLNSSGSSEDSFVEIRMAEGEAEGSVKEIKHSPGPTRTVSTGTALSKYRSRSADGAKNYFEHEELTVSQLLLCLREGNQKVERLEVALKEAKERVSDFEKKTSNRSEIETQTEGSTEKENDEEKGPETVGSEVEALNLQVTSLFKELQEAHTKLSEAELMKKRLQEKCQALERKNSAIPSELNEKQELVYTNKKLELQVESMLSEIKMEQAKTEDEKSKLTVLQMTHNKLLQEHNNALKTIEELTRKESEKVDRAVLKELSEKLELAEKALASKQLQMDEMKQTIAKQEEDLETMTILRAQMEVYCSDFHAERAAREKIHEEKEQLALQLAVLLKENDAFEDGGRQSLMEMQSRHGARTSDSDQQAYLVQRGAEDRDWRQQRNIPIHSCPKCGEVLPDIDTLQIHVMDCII

Target: T1, FLAG-tagged NRF2 (nuclear factor erythroid 2-related factor 2) (UniProt Q16236)
T1 sequence: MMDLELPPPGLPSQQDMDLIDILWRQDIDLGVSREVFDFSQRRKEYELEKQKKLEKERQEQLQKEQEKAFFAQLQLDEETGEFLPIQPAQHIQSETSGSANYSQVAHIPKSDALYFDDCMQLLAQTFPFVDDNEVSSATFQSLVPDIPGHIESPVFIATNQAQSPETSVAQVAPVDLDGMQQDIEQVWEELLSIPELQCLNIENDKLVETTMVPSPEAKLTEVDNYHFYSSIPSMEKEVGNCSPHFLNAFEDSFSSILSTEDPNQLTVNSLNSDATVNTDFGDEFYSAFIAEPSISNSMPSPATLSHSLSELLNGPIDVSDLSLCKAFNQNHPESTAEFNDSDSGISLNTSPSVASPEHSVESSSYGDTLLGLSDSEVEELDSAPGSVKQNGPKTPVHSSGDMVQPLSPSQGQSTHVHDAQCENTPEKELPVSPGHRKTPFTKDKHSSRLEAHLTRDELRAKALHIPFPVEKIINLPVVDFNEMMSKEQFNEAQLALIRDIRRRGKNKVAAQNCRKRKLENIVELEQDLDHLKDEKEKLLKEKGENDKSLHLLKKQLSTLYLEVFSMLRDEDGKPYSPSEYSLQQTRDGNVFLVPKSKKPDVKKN
Assay: co-IP; HEK293T cells co-transfected with FLAG-NRF2 and His-OPTN plasmids (2000 ng each per well), lysed in NP-40 buffer; lysate incubated with Anti-Flag M2 Affinity Gel for 24 h, washed five times with NP-40 buffer, immunoblot

His-tagged OPTN (optineurin) (from UniProt Q96CV9 1-577)
binding: binds
